Results: article PMC11251048
No constants are given. Whether binding was seen depends on the method and setting. Binding seen in cells or lysates may run through a third protein.

Biological target: YFP-PARP14 full length (human) (UniProt Q460N5)
Assay: co-IP; GFP-trap agarose (ChromoTek) on lysates of transfected HEK293FT cells treated with vehicle or IFNγ (100 or 200 U/mL, 24 h); lysis in 10 mM Tris pH 7.5, 150 mM NaCl, 0.5 mM EDTA, 0.5% NP40; 1 h with beads, on ice or at 4 °C; endogenous partners detected by western blot

binding: no binding
Substance: PARP9 (from UniProt Q8IXQ6 1-854) (other; other documents disagree on this pair)
